These are yes or no findings as the source states them, for the method shown. For part of these data: In cells and extracts the contact can be indirect. Some entries that bind do so weakly or less than the wild type. Tags and fused reporters may be left off the sequences shown. Blank lines part the entries; values can stand above or below the binder they belong to.
Experiments:
[1] = molecular target: T1, BRCA1-associated protein (BRAP) from HeLa cell extract (UniProt Q7Z569); test: recap of the tandem affinity purification result of Example 1
T1 sequence (looked up): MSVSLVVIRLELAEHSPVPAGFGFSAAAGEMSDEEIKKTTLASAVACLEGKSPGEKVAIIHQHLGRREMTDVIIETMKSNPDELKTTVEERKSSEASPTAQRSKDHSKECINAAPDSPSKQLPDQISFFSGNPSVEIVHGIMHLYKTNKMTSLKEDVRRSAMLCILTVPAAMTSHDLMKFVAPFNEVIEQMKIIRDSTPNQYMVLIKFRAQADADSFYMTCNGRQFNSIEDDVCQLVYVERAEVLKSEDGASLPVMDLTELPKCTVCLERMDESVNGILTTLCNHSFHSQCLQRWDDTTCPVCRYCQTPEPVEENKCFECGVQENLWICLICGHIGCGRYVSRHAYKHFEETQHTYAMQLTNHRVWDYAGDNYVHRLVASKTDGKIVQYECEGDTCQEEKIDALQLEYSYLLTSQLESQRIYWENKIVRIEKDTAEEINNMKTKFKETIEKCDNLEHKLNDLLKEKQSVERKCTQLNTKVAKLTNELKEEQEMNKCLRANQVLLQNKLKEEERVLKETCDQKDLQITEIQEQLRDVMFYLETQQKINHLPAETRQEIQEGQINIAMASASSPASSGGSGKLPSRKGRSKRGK

S-tagged BRAP [2] = molecular target: T2, S-tagged BRAP (UniProt Q7Z569); test: co-immunoprecipitation from co-transfected COS7 cells with S-protein agarose or anti-Myc agarose, in both directions
T2 sequence (looked up): T1 sequence (looked up)

S-tagged BRAP [3] = molecular target: T2, S-tagged BRAP; test: co-immunoprecipitation from co-transfected COS7 cells (legend of FIG. 1b)

binding [1]: binds
B1: galectin-2 expressed from the galectin-2 TAP vector (Myc tag at the N-terminus, TAP tag at the C-terminus) (protein, UniProt P05162 1-132, looked up, not shown: small tags and cut ends)
chain: MTGELEVKNMDMKPGSTLKITGSIADGTDGFVINLGQGTDKLNLHFNPRFSESTIVCNSLDGSNWGQEQREDHLCFSPGSEVKFTVTFESDKFKVKLPDGHELTFPNRLGHSHLSYLSVRGGFNMSSFKLKE

binding (S-tagged BRAP [2]): binds
binding (S-tagged BRAP [3]): binds
B2: Myc-tagged galectin-2 (protein, UniProt P05162 1-132, looked up, not shown: small tags and cut ends)
chain: B1 chain
